Test results published in patent US20250283871A1, “COMPOSITIONS AND METHODS FOR MODULATING THE INTERACTION BETWEEN SS18-SSX FUSION ONCOPROTEIN AND NUCLEOSOMES” (Dana-Farber Cancer Institute, Inc., priority 2020, published 2025).

Tested on: BAF complex subunits and histone proteins
Test: Mass spectrometry proteomics of purified HA-SS18 WT and HA-SS18-SSX1 complexes (Tables 5A-5E)
Set-up: species or system human
[1] = HA-SS18SSX1_CHR_peptides: protein identified in the HA-SS18-SSX1 purification from solubilized chromatin (CHR), HEK-293T
[2] = HA-SS18SSX1_NE_peptides: protein co-purified with HA-SS18-SSX1 BAF complexes from soluble nuclear extract (NE), HEK-293T cells
[3] = HA-SS18WT_CHR_peptides: HA-SS18 WT purification from nuclease-treated solubilized chromatin (CHR), HEK-293T, label = protein identified
[4] = HA-SS18WT_NE_peptides: proteins co-purified with HA-SS18 WT from nuclear extract (NE), HEK-293T
[5] = HA-SS18WT_CHR_peptides: protein identified in HA-SS18 WT BAF complex purification from nuclease-treated solubilized chromatin (CHR), HEK-293T

Molecule | Total (total peptides) [1] | Unique (unique peptides) [1] | Total (peptides) [2] | Unique (peptides) [2] | Total (peptides) [3] | Unique (peptides) [3] | Total (peptides) [4] | Unique (peptides) [4] | Total (HA-SS18SSX1_CHR_peptides, total peptides of the identified protein) | Unique (HA-SS18SSX1_CHR_peptides, unique peptides of the identified protein) | Total (total peptides) [5] | Unique (unique peptides) [5]
TBL3 (protein, UniProt Q12788 2-808, looked up) Transducin beta-like protein 3: AETAAGVGRFKTNYAVERKIEPFYKGGKAQLDQTGQHLFCVCGTRVNILEVASGAVLRSLEQEDQEDITAFDLSPDNEVLVTASRALLLAQWAWQEGSVTRLWKAIHTAPVATMAFDPTSTLLATGGCDGAVRVWDIVRHYGTHHFRGSPGVVHLVAFHPDPTRLLLFSSATDAAIRVWSLQDRSCLAVLTAHYSAVTSLAFSADGHTMLSSGRDKICIIWDLQSCQATRTVPVFESVEAAVLLPEEPVSQLGVKSPGLYFLTAGDQGTLRVWEAASGQCVYTQAQPPGPGQELTHCTLAHTAGVVLTATADHNLLLYEARSLRLQKQFAGYSEEVLDVRFLGPEDSHVVVASNSPCLKVFELQTSACQILHGHTDIVLALDVFRKGWLFASCAKDQSVRIWRMNKAGQVMCVAQGSGHTHSVGTVCCSRLKESFLVTGSQDCTVKLWPLPKALLSKNTAPDNGPILLQAQTTQRCHDKDINSVAIAPNDKLLATGSQDRTAKLWALPQCQLLGVFSGHRRGLWCVQFSPMDQVLATASADGTIKLWALQDFSCLKTFEGHDASVLKVAFVSRGTQLLSSGSDGLVKLWTIKNNECVRTLDAHEDKVWGLHCSRLDDHALTGASDSRVILWKDVTEAEQAEEQARQEEQVVRQQELDNLLHEKRYLRALGLAISLDRPHTVLTVIQAIRRDPEACEKLEATMLRLRRDQKEALLRFCVTWNTNSRHCHEAQAVLGVLLRREAPEELLAYEGVRAALEALLPYTERHFQRLSRTLQAAAFLDFLWHNMKLPVPAAAPTPWETHKGALP | 11 | 11 | 2 | 2 | 7 | 7 | 1 | 1 | – | – | – | –
UTP6 (protein, UniProt Q9NYH9 1-597, looked up) U3 small nucleolar …: MAEIIQERIEDRLPELEQLERIGLFSHAEIKAIIKKASDLEYKIQRRTLFKEDFINYVQYEINLLELIQRRRTRIGYSFKKDEIENSIVHRVQGVFQRASAKWKDDVQLWLSYVAFCKKWATKTRLSKVFSAMLAIHSNKPALWIMAAKWEMEDRLSSESARQLFLRALRFHPECPKLYKEYFRMELMHAEKLRKEKEEFEKASMDVENPDYSEEILKGELAWIIYKNSVSIIKGAEFHVSLLSIAQLFDFAKDLQKEIYDDLQALHTDDPLTWDYVARRELEIESQTEEQPTTKQAKAVEVGRKEERCCAVYEEAVKTLPTEAMWKCYITFCLERFTKKSNSGFLRGKRLERTMTVFRKAHELKLLSECQYKQLSVSLLCYNFLREALEVAVAGTELFRDSGTMWQLKLQVLIESKSPDIAMLFEEAFVHLKPQVCLPLWISWAEWSEGAKSQEDTEAVFKKALLAVIGADSVTLKNKYLDWAYRSGGYKKARAVFKSLQESRPFSVDFFRKMIQFEKEQESCNMANIREYYERALREFGSADSDLWMDYMKEELNHPLGRPENCGQIYWRAMKMLQGESAEAFVAKHAMHQTGHL | 11 | 11 | – | – | 4 | 4 | – | – | – | – | – | –
PUM3 (protein, UniProt Q15397 1-648, looked up) Pumilio homolog 3: MEVKGKKQFTGKSTKTAQEKNRFHKNSDSGSSKTFPTRKVAKEGGPKVTSRNFEKSITKLGKKGVKQFKNKQQGDKSPKNKFQPANKFNKKRKFQPDGRSDESAAKKPKWDDFKKKKKELKQSRQLSDKTNYDIVVRAKQMWEILRRKDCDKEKRVKLMSDLQKLIQGKIKTIAFAHDSTRVIQCYIQYGNEEQRKQAFEELRDDLVELSKAKYSRNIVKKFLMYGSKPQIAEIIRSFKGHVRKMLRHAEASAIVEYAYNDKAILEQRNMLTEELYGNTFQLYKSADHRTLDKVLEVQPEKLELIMDEMKQILTPMAQKEAVIKHSLVHKVFLDFFTYAPPKLRSEMIEAIREAVVYLAHTHDGARVAMHCLWHGTPKDRKVIVKTMKTYVEKVANGQYSHLVLLAAFDCIDDTKLVKQIIISEIISSLPSIVNDKYGRKVLLYLLSPRDPAHTVREIIEVLQKGDGNAHSKKDTEVRRRELLESISPALLSYLQEHAQEVVLDKSACVLVSDILGSATGDVQPTMNAIASLAATGLHPGGKDGELHIAEHPAGHLVLKWLIEQDKKMKENGREGCFAKTLVEHVGMKNLKSWASVNRGAIILSSLLQSCDLEVANKVKAALKSLIPTLEKTKSTSKGIEILLEKLST | 11 | 11 | – | – | 5 | 5 | – | – | – | – | – | –
SMARCA1 (protein, UniProt P28370 1-1042, looked up) SWI/SNF-related …: MEQDTAAVAATVAAADATATIVVIEDEQPGPSTSQEEGAAAAATEATAATEKGEKKKEKNVSSFQLKLAAKAPKSEKEMDPEYEEKMKADRAKRFEFLLKQTELFAHFIQPSAQKSPTSPLNMKLGRPRIKKDEKQSLISAGDYRHRRTEQEEDEELLSESRKTSNVCIRFEVSPSYVKGGPLRDYQIRGLNWLISLYENGVNGILADEMGLGKTLQTIALLGYLKHYRNIPGPHMVLVPKSTLHNWMNEFKRWVPSLRVICFVGDKDARAAFIRDEMMPGEWDVCVTSYEMVIKEKSVFKKFHWRYLVIDEAHRIKNEKSKLSEIVREFKSTNRLLLTGTPLQNNLHELWALLNFLLPDVFNSADDFDSWFDTKNCLGDQKLVERLHAVLKPFLLRRIKTDVEKSLPPKKEIKIYLGLSKMQREWYTKILMKDIDVLNSSGKMDKMRLLNILMQLRKCCNHPYLFDGAEPGPPYTTDEHIVSNSGKMVVLDKLLAKLKEQGSRVLIFSQMTRLLDILEDYCMWRGYEYCRLDGQTPHEEREEAIEAFNAPNSSKFIFMLSTRAGGLGINLASADVVILYDSDWNPQVDLQAMDRAHRIGQKKPVRVFRLITDNTVEERIVERAEIKLRLDSIVIQQGRLIDQQSNKLAKEEMLQMIRHGATHVFASKESELTDEDITTILERGEKKTAEMNERLQKMGESSLRNFRMDIEQSLYKFEGEDYREKQKLGMVEWIEPPKRERKANYAVDAYFREALRVSEPKIPKAPRPPKQPNVQDFQFFPPRLFELLEKEILYYRKTIGYKVPRNPDIPNPALAQREEQKKIDGAEPLTPEETEEKEKLLTQGFTNWTKRDFNQFIKANEKYGRDDIDNIAREVEGKSPEEVMEYSAVFWERCNELQDIEKIMAQIERGEARIQRRISIKKALDAKIARYKAPFHQLRIQYGTSKGKNYTEEEDRFLICMLHKMGFDRENVYEELRQCVRNAPQFRFDWFIKSRTAMEFQRRCNTLISLIEKENMEIEERERAEKKKRATKTPMVKFSAFS | 11 | 11 | 2 | 2 | 7 | 7 | – | – | – | – | – | –
MPHOSPH8 (protein, UniProt Q99549 1-860, looked up) M-phase phosphoprotein 8: MEQVAEGARVTAVPVSAADSTEELAEVEEGVGVVGEDNDAAARGAEAFGDSEEDGEDVFEVEKILDMKTEGGKVLYKVRWKGYTSDDDTWEPEIHLEDCKEVLLEFRKKIAENKAKAVRKDIQRLSLNNDIFEANSDSDQQSETKEDTSPKKKKKKLRQREEKSPDDLKKKKAKAGKLKDKSKPDLESSLESLVFDLRTKKRISEAKEELKESKKPKKDEVKETKELKKVKKGEIRDLKTKTREDPKENRKTKKEKFVESQVESESSVLNDSPFPEDDSEGLHSDSREEKQNTKSARERAGQDMGLEHGFEKPLDSAMSAEEDTDVRGRRKKKTPRKAEDTRENRKLENKNAFLEKKTVPKKQRNQDRSKSAAELEKLMPVSAQTPKGRRLSGEERGLWSTDSAEEDKETKRNESKEKYQKRHDSDKEEKGRKEPKGLKTLKEIRNAFDLFKLTPEEKNDVSENNRKREEIPLDFKTIDDHKTKENKQSLKERRNTRDETDTWAYIAAEGDQEVLDSVCQADENSDGRQQILSLGMDLQLEWMKLEDFQKHLDGKDENFAATDAIPSNVLRDAVKNGDYITVKVALNSNEEYNLDQEDSSGMTLVMLAAAGGQDDLLRLLITKGAKVNGRQKNGTTALIHAAEKNFLTTVAILLEAGAFVNVQQSNGETALMKACKRGNSDIVRLVIECGADCNILSKHQNSALHFAKQSNNVLVYDLLKNHLETLSRVAEETIKDYFEARLALLEPVFPIACHRLCEGPDFSTDFNYKPPQNIPEGSGILLFIFHANFLGKEVIARLCGPCSVQAVVLNDKFQLPVFLDSHFVYSFSPVAGPNKLFIRLTEAPSAKVKLLIGAYRVQLQ | 11 | 10 | – | – | 5 | 5 | – | – | – | – | – | –
RALY (protein, UniProt Q9UKM9 2-306, looked up) RNA-binding protein Raly: SLKLQASNVTNKNDPKSINSRVFIGNLNTALVKKSDVETIFSKYGRVAGCSVHKGYAFVQYSNERHARAAVLGENGRVLAGQTLDINMAGEPKPDRPKGLKRAASAIYSGYIFDYDYYRDDFYDRLFDYRGRLSPVPVPRAVPVKRPRVTVPLVRRVKTNVPVKLFARSTAVTTSSAKIKLKSSELQAIKTELTQIKSNIDALLSRLEQIAAEQKANPDGKKKGDGGGAGGGGGGGGSGGGGSGGGGGGGSSRPPAPQENTTSEAGLPQGEARTRDDGDEEGLLTHSEEELEHSQDTDADDGALQ | 11 | 10 | – | – | 6 | 6 | – | – | 1 | 1 | – | –
SRSF5 (protein, UniProt Q13243 1-272, looked up) Serine/arginine-rich splicing …: MSGCRVFIGRLNPAAREKDVERFFKGYGRIRDIDLKRGFGFVEFEDPRDADDAVYELDGKELCSERVTIEHARARSRGGRGRGRYSDRFSSRRPRNDRRNAPPVRTENRLIVENLSSRVSWQDLKDFMRQAGEVTFADAHRPKLNEGVVEFASYGDLKNAIEKLSGKEINGRKIKLIEGSKRHSRSRSRSRSRTRSSSRSRSRSRSRSRKSYSRSRSRSRSRSRSKSRSVSRSPVPEKSQKRGSSSRSKSPASVDRQRSRSRSRSRSVDSGN | 11 | 7 | – | – | – | – | – | – | – | – | 1 | 1
SRSF7 (protein, UniProt Q16629 1-238, looked up) Serine/arginine-rich splicing …: MSRYGRYGGETKVYVGNLGTGAGKGELERAFSYYGPLRTVWIARNPPGFAFVEFEDPRDAEDAVRGLDGKVICGSRVRVELSTGMPRRSRFDRPPARRPFDPNDRCYECGEKGHYAYDCHRYSRRRRSRSRSRSHSRSRGRRYSRSRSRSRGRRSRSASPRRSRSISLRRSRSASLRRSRSGSIKGSRYFQSPSRSRSRSRSISRPRSSRSKSRSPSPKRSRSPSGSPRRSASPERMD | 11 | 6 | – | – | 6 | 4 | – | – | – | – | – | –
